Measured values from EP2664619B1, “Purine derivatives as tools for screening anti-Alzheimer compounds” (Manros Therapeutics, priority 2012, dated 2013).

Tested on: Aβ42 production
Assay: Sandwich ELISA measurement of Aβ42 levels in supernatant of treated N2a-APP695 cells
Assay type: cell-based, Mouse
Protocol: Mouse neuroblastoma cells (N2a cells) or N2a-APP695 cells (N2a cell line stably transfected with APP695, an amyloid precursor protein) were cultured in an essential medium composed of Dulbecco's minimal essential medium (DMEM) and of OptiMEM® (1:1, v/v) (Gibco®) containing 0.2 mg/mL Geniticin (Geneticin® Selective Antibiotic, Gibco®) and 5 % fetal bovine serum (FBS, Gibco®, EU approved origin) in a humidified, 5% CO2 incubator at 37°C. Routinely, cells were split without use of Trypsin every 4/5 days. They were first rinsed with PBS (Gibco) and detached from the plate bottom using 4 mL Versene (Gibco) at room temperature for 3-4 min. […]
The N2a-APP695 cells were seeded at 10.000 cells/well in a 96 well plate with modified media (0.5% FBS) and incubated overnight. Cells were treated with fresh media comprising different compounds according to the invention (equal quantity of DMSO sold by Sigma®). […]
Then, Aβ38, Aβ40 and Aβ42 levels were measured in a sandwich ELISA (Enzyme-Linked ImmunoSorbent Assay) using a combination of monoclonal antibody 6E10 (mAb 6E10) (sold by Covance® under the reference SIG-39320) and biotinylated polyclonal Aβ38, Aβ40 or Aβ42 antibodies (provided by Dr. P.D. Mehta, IBR, Staten Island, USA). […]
The optical density was finally measured at 490 nm in a microELISA reader (sold by BioTek Instrument, reference E1 800, Gen 5 software). […]

CC[C@H](CO)Nc1nc(N(C)c2ccccc2)c2ncn(C(C)C)c2n1 [Aftin-5, (2R)-2-[[9-isopropyl-6-(N-methylanilino)purin-2-yl]amino]butan-1-ol]
Aβ42 production after plateau (100 µM, even after 48 hours): remained stable | time at which Aβ42 production reached a plateau (after 100 µM addition, time-course, Figure 2): about 12 hours
